In US8367389B2, “Methods, compositions and devices utilizing structurally stable cyanuric acid hydrolase” (Regents of the University of Minnesota, priority 2009, dated 2013):

Assay: Metal analysis (ICP) of the enzyme
Format: physicochemical

B1: cyanuric acid hydrolase from M. thermoacetica ATCC 39073: recombinant His-tagged cyanuric acid hydrolase encoded by ORF Moth—2120 of Moorella thermoacetica ATCC 39073, expressed in E. coli (protein, listed as Moorella thermoacetica)
chain: MQKVEVFRIPTASPDDISGLATLIDSGKINPAEIVAILGKTEGNGCVNDFTRGFATQSLAMYLAEKLGISREEVVKKVAFIMSGGTEGVMTPHITVFVRKDVQEPAKPGKRLAVGVAFTRDFLPEELGRMEQVNEVARAVKEAMKDAQIDDPRDVHFVQIKCPLLTAERIEDAKRRGKDVVVNDTYKSMAYSRGASALGVALALGEISADKISNEAICHDWNLYSSVASTSAGVELLNDEIIVVGNSTNSASDLVIGHSVMKDAIDADAVRAALKDAGLKFDCCPPAEELAKIVNVLAKAEAASSGTVRGRRNTMLDDSDINHTRSARAVVNAVIASVVGDPMVYVSGGAEHQGPDGGGPIAVIARV
modifications: His tag
notes: recombinant His-tagged cyanuric acid hydrolase encoded by ORF Moth—2120 of Moorella thermoacetica ATCC 39073, expressed in E. coli
nickel content, molar metal to subunit stoichiometry: 0.05
zinc content, molar metal to subunit stoichiometry: 0.08
